Source: patent US20090286883A1, “TREATMENT OF HEART FAILURE AND ASSOCIATED CONDITIONS BY ADMINISTRATION OF MONOAMINE OXIDASE INHIBITORS” (Universita' degli Studi di Padova (University of Padua), priority 2008, published 2009)

Tested on: TAC-induced pressure overload
Assay: Transverse aortic constriction (TAC) pressure overload in mice, cardiac morphology and in vivo ventricular function
Conditions: clorgyline 1 mg/kg/day

C#CCN(C)CCCOc1ccc(Cl)cc1Cl [clorgyline]
BW (TAC 3 weeks): 25.6 ± 0.6 g
BW (TAC 6 weeks): 27.1 ± 0.4 g
